# Laboratory results from article doi:10.1101/2024.02.15.580496 (bioRxiv, 2024).
# The chains behind the UniProt entries cited, without tags or fusion partners. Where a name states a change or a piece, a line headed by the entry shows the natural chain unless it says otherwise.
# UniProt Q9FIE3: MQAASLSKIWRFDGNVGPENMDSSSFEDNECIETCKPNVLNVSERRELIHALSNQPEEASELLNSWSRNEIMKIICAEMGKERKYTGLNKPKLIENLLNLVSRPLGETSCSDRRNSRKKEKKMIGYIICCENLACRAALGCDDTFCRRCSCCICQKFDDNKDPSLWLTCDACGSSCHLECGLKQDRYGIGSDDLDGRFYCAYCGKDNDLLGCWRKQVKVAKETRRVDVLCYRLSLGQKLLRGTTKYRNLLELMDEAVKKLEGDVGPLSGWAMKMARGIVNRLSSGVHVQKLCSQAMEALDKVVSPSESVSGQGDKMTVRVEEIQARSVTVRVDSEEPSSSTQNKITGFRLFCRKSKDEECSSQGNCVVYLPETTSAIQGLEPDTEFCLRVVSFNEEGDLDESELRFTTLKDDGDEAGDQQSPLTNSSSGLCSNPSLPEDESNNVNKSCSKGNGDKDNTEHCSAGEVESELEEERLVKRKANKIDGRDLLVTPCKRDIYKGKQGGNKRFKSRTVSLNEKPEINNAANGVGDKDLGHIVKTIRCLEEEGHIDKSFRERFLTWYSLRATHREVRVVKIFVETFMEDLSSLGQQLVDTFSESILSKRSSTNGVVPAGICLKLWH
# No constants are given. Whether binding was seen depends on the method and setting. Binding seen in cells or lysates may run through a third protein.
# B1: FIE (PRC2 core subunit) (protein, UniProt Q9LT47 1-369)
# chain: MSKITLGNESIVGSLTPSNKKSYKVTNRIQEGKKPLYAVVFNFLDARFFDVFVTAGGNRITLYNCLGDGAISALQSYADEDKEESFYTVSWACGVNGNPYVAAGGVKGIIRVIDVNSETIHKSLVGHGDSVNEIRTQPLKPQLVITASKDESVRLWNVETGICILIFAGAGGHRYEVLSVDFHPSDIYRFASCGMDTTIKIWSMKEFWTYVEKSFTWTDDPSKFPTKFVQFPVFTASIHTNYVDCNRWFGDFILSKSVDNEILLWEPQLKENSPGEGASDVLLRYPVPMCDIWFIKFSCDLHLSSVAIGNQEGKVYVWDLKSCPPVLITKLSHNQSKSVIRQTAMSVDGSTILACCEDGTIWRWDVITK
# Target: VIN3-GFP R556D/I575D (Arabidopsis thaliana) (UniProt Q9FIE3)
# Assay: co-IP
binder,measurement,value
B1,binding,no binding
